PubChem BioAssay AID2685 (National Center for Advancing Translational Sciences (NCATS), 2010)
This is one part of the list. Further columns of the screen follow, without active or inactive calls. The list favours compounds with an active or inconclusive main result. Words in brackets tell the shape of the fitted curve; partial curves, single points and poor fits give uncertain potencies.

Assay: qHTS Assay for Lipid Storage Modulators in Drosophila S3 Cells;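 as to cell number change: cells counted by Cell Tracker Red CMTPX staining in the red channel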
Settings: BODIPY lipid droplet fluorescence, 18-24 h; for cell number change: measured here: cell count max response, cells fed with added oleic acid
Outline: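 Drosophila S3 cells got compounds at several concentrations plus oleic acid (400 uM solution). Laser-scanning cytometry with 488 nm excitation read lipid droplets at 500-530 nm and cells at 575-640 nm. Percent activity was relative to 20 uM Triacsin C.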

[1] = measured here: cell number channel AC50, cells fed with added oleic acid
[2] = measured here: lipid fluorescence (Fed channel) AC50, cells fed with added oleic acid

Structure (SMILES) | cell number change [%] | AC50 [1] | AC50 [2]
Cc1onc(-c2ccccc2)c1C(=O)N/N=C/c1ccc([N+](=O)[O-])s1 | 8.61 | 0.082 µM [rising, full curve, poor fit] | 0.092 µM [rising, full curve, poor fit]
C=CCNC(=O)c1ccc(Sc2ccccc2)c([N+](=O)[O-])c1 | -1.67 |  | 0.259 µM [rising, full curve]
CCCNC(=O)C(Cc1ccc(Cl)cc1)NC(=O)c1ccc(-c2ccccc2)cc1 (stereo not given) | -64.3 | 7.31 µM [falling, partial curve] | 0.00461 µM [rising, full curve, poor fit]
CCc1cccc2c(C(=S)N3CCOCC3)c[nH]c12 | -13.9 |  | 3.26 µM [falling, single point]
Cc1nnc(NC(=O)c2sc3nc(-c4cccs4)cc(C(F)(F)F)c3c2N)s1 |  |  | 10.3 µM [falling, partial curve]
COc1ccc2[nH]c3c(=O)n(/N=C/[C@H]4C(C)C=C(C)CC4C)c(=O)[nH]c3c2c1 (stereo not given in full) | -69.4 | 20.6 µM [falling, single point] | 11.6 µM [falling, partial curve, poor fit]
CCOC(=O)c1cnn(-c2ccccc2)c1N |  | 2.06 µM [rising, partial curve] | 
CC(C)C[C@H](NC(=O)N1CCn2c1nc1ccccc12)C(=O)NCCc1ccccc1 | -2.02 |  | 0.259 µM [falling, full curve]
Cn1c(=O)c2c(SCC(=O)NCC3CCCO3)nc(-c3ccccc3Cl)nc2n(C)c1=O (stereo not given) | -33.4 | 6.31 µM [falling, full curve, poor fit] | 6.31 µM [falling, full curve]
CC(C)CN(CC(C)C)C(=O)CCCC(=O)N(CC(C)C)CC(C)C | -11.9 |  | 0.259 µM [falling, full curve, poor fit]
CCOC(=O)C1(CCCc2ccccc2)CCN(S(=O)(=O)N(C)C)CC1 | -22.3 |  | 29.1 µM [falling, single point]
CC(=O)c1ccc2c(c1)c1ccccc1n2CC(C)C |  |  | 29.1 µM [rising, single point]
CC(C)CC(=O)Nc1ccc(C(=O)Cn2c(=O)oc3ccccc32)cc1 | 4.19 | 0.00411 µM [rising, full curve, poor fit] | 
CN(C)c1nc(Nc2ccc(F)cc2)nc(Oc2ccc(F)cc2)n1 | 23 |  | 
CCC(NC(=O)C1C2C=CC(C2)C1C(=O)O)c1ccc(C)cc1 (stereo not given) | 14.8 |  | 6.51 µM [rising, partial curve, poor fit]
CCc1ccccc1NC(=O)c1cc(C)no1 | -25.2 |  | 
COC(=O)c1nc2ccccn2c1F | -23.4 |  | 32.6 µM [falling, single point]
O=C1/C(=C\c2ccc(O)c(O)c2)SC(=S)N1Cc1ccccc1 | -208 | 14.6 µM [falling, partial curve] | 
COc1ccc(OC)c(NC(=O)COC(=O)Cn2nnc(-c3ccccc3)n2)c1 | 2.32 |  | 14.6 µM [falling, partial curve, poor fit]

Structure (SMILES) | cell number change [%] | AC50 [1] | AC50 [2]
Cc1ccccc1C(OCCN(C(C)C)C(C)C)c1ccccc1 (stereo not given) | -8.39 |  | 
CCn1cc(C(=O)N2CC=C(c3ccccc3)CC2)c(=O)c2ccc(C)nc21 | 3.2 |  | 0.116 µM [rising, partial curve, poor fit]
Cc1nc2cc(N=NC3=C(O)CCCC3=O)ccc2s1 | 5.63 |  | 4.11 µM [rising, full curve, poor fit]
COc1ccc(Oc2nc(SC)nc3ccccc23)cc1 | 85.5 | 23.1 µM [rising, single point] | 18.4 µM [rising, single point]
CC(C)N(CCO)Cc1nc(C(c2ccccc2)c2ccccc2)no1 | -21 |  | 29.1 µM [falling, single point]
O=C(Cc1ccccc1)N[C@@H](Cc1ccccc1)c1nc2ccccc2[nH]1 | -14.3 |  | 
CC(C)NC(=O)/C(=N\O)c1ccccc1 | -48 | 14.6 µM [falling, partial curve, poor fit] | 
CN(C)c1ccc(Cl)cc1N | 17.1 | 1.16 µM [rising, single point] | 3.26 µM [rising, single point]
COc1ccc(N2CCN(C(=O)c3ccc(COc4ccc5c(C)cc(=O)oc5c4)cc3)CC2)cc1 | -13.6 |  | 5.8 µM [rising, full curve]
CC(=O)Nc1ccc(S(=O)(=O)NCc2ccc(C(=O)NCCN3CCCCCC3)cc2)cc1 | -27.6 |  | 32.6 µM [falling, single point]
CN(C)c1ccc(C(CNC(=O)c2ccc(C#N)cc2)c2c[nH]c3ccccc23)cc1 (stereo not given) | 1.24 |  | 
Cn1nnnc1SCCNCC#Cc1ccccc1 | 63.4 | 6.51 µM [rising, partial curve] | 5.17 µM [rising, partial curve]
O=C(NN1C(=O)NC2(CCCCC2)C1=O)c1ccc(Cl)s1 | -40.8 | 0.00461 µM [falling, full curve, poor fit] | 0.00461 µM [falling, full curve, poor fit]
CC(=O)c1cc(F)ccc1OCC(=O)N1CCN(c2ccc(F)cc2)CC1 | 25.8 |  | 
CC(=O)Oc1ccccc1/C=C/c1ccc2ccccc2[n+]1C | -34.6 |  | 1.64 µM [falling, full curve]
C=CCN1C(=O)C(C)(C)Nc2ccccc21 | 5.82 |  | 0.103 µM [falling, full curve, poor fit]
CC(C)Oc1ccc(C(=O)NC(=S)Nc2ccc(CN3CCOCC3)cc2)cc1 | 4.23 |  | 2.59 µM [rising, single point]
Cc1ccc(C)c(NC2=NCC(=O)N2c2ccc3c(c2)OCCO3)c1 | 6.99 |  | 1.64 µM [rising, partial curve, poor fit]
FC(F)(F)Oc1ccc(NC(=S)Nc2ccc(OC(F)(F)F)cc2)cc1 | -49 | 20.6 µM [falling, single point] | 

A portion from further up, for reference:
Structure (SMILES) | cell number change [%] | AC50 [1] | AC50 [2]
CC(=O)c1cc(F)ccc1OCC(=O)N1CCN(c2ccc(F)cc2)CC1 | 25.8 |  | 
CC(=O)Oc1ccccc1/C=C/c1ccc2ccccc2[n+]1C | -34.6 |  | 1.64 µM [falling, full curve]
